Patent US20090324602A1
No constants are given. Whether binding was seen depends on the method and setting. Some results given as binding are weak or reduced against the parent protein; the word gives no strength. One block for each substance: values may come before it.

The chains behind the UniProt entries cited, without tags or fusion partners. Where a name states a change or a piece, a line headed by the entry shows the natural chain unless it says otherwise. Residues count along the entry.
UniProt Q9NP84: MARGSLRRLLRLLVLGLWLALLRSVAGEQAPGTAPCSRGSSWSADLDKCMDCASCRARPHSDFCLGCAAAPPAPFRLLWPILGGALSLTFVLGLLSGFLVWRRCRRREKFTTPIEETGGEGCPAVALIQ
UniProt Q9CR75: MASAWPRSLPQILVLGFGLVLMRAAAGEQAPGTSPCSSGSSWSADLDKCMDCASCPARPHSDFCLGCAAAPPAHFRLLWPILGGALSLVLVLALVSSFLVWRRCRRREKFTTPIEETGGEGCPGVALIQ
UniProt O43508, residues 106-249: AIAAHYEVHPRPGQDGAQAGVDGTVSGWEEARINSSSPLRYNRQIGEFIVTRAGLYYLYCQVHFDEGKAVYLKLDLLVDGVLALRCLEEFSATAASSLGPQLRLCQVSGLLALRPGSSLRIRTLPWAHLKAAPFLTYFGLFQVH
UniProt O54907, residues 106-249: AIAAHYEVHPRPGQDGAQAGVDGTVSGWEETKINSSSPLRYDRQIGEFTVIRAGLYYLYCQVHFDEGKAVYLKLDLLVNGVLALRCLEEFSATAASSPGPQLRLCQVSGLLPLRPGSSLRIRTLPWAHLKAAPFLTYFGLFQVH

Key:
[1] = biological target: cynomolgus monkey Fn14 W42A, expressed on the cell surface (cynomolgus monkey); experiment: FACS direct binding, 293E cells transiently expressing the Fn14 construct, MFI
[2] = biological target: human Fn14 W42A, expressed on the cell surface (human) (UniProt Q9NP84); experiment: as above
[3] = biological target: human Fn14, full-length, expressed on the cell surface (human) (UniProt Q9NP84); experiment: as above
[4] = biological target: murine Fn14 W42A, expressed on the cell surface (mouse) (UniProt Q9CR75); experiment: as above
[5] = biological target: cynomolgus monkey Fn14, full-length, expressed on the cell surface (cynomolgus monkey); experiment: direct binding FACS, Fn14-transfected 293E cells (FIG. 19B)
[6] = biological target: human Fn14, full-length, expressed on the cell surface (human) (UniProt Q9NP84); experiment: as above
[7] = biological target: mouse Fn14, full-length, expressed on the cell surface (mouse) (UniProt Q9CR75); experiment: as above
[8] = biological target: human Fn14 S40R, expressed on the cell surface (human) (UniProt Q9NP84); experiment: direct binding FACS (FIG. 23A)
[9] = biological target: human Fn14 R56K, expressed on the cell surface (human) (UniProt Q9NP84); experiment: direct binding FACS (FIG. 23A)
[10] = biological target: human Fn14 L65Q, expressed on the cell surface (human) (UniProt Q9NP84); experiment: direct binding FACS (FIG. 23A)
[11] = biological target: human Fn14 T33Q, expressed on the cell surface (human) (UniProt Q9NP84); experiment: direct binding FACS (FIG. 23A)
[12] = biological target: human Fn14 M50A, expressed on the cell surface (human) (UniProt Q9NP84); experiment: direct binding FACS (FIG. 23A)
[13] = biological target: human Fn14 H60K, expressed on the cell surface (human) (UniProt Q9NP84); experiment: direct binding FACS (FIG. 23A)
[14] = biological target: human Fn14 R56P, expressed on the cell surface (human) (UniProt Q9NP84); experiment: direct binding FACS (FIG. 23A)
[15] = biological target: human Fn14 S40R, expressed on the cell surface (human) (UniProt Q9NP84); experiment: FACS direct binding, cells expressing the huFn14 construct, MFI
[16] = biological target: human Fn14 R56K, expressed on the cell surface (human) (UniProt Q9NP84); experiment: as above
[17] = biological target: human Fn14 L65Q, expressed on the cell surface (human) (UniProt Q9NP84); experiment: as above
[18] = biological target: human Fn14 W42A, expressed on the cell surface (human) (UniProt Q9NP84); experiment: as above
[19] = biological target: human Fn14, full-length, expressed on the cell surface (human) (UniProt Q9NP84); experiment: as above
[20] = biological target: human Fn14 T33Q, expressed on the cell surface (human) (UniProt Q9NP84); experiment: as above
[21] = biological target: human Fn14 M50A, expressed on the cell surface (human) (UniProt Q9NP84); experiment: as above
[22] = biological target: human Fn14 H60K, expressed on the cell surface (human) (UniProt Q9NP84); experiment: as above
[23] = biological target: human Fn14 R56P, expressed on the cell surface (human) (UniProt Q9NP84); experiment: as above
[24] = biological target: cynomolgus monkey Fn14, full-length, expressed on the cell surface (cynomolgus monkey); experiment: FACS direct binding to transfected cells, MFI
[25] = biological target: human Fn14, full-length, expressed on the cell surface (human) (UniProt Q9NP84); experiment: FACS direct binding to transfected cells, MFI
[26] = biological target: mouse Fn14, full-length, expressed on the cell surface (mouse) (UniProt Q9CR75); experiment: FACS direct binding to transfected cells, MFI
[27] = biological target: cynomolgus monkey Fn14 W42A, expressed on the cell surface (cynomolgus monkey); experiment: FACS, transiently transfected 293E cells (FIG. 21A)
[28] = biological target: human Fn14 W42A, expressed on the cell surface (human) (UniProt Q9NP84); experiment: as above
[29] = biological target: murine Fn14 W42A, expressed on the cell surface (mouse) (UniProt Q9CR75); experiment: as above
[30] = biological target: cynomolgus monkey Fn14, full-length, expressed on the cell surface (cynomolgus monkey); experiment: FACS (legend of FIG. 19B)
[31] = biological target: human Fn14, full-length, expressed on the cell surface (human) (UniProt Q9NP84); experiment: FACS (legend of FIG. 19B)
[32] = biological target: mouse Fn14, full-length, expressed on the cell surface (mouse) (UniProt Q9CR75); experiment: FACS (legend of FIG. 19B)
[33] = biological target: cynomolgus monkey Fn14 W42A, expressed on the cell surface (cynomolgus monkey); experiment: FACS (legend of FIG. 21A)
[34] = biological target: human Fn14 W42A, expressed on the cell surface (human) (UniProt Q9NP84); experiment: FACS (legend of FIG. 21A)
[35] = biological target: murine Fn14 W42A, expressed on the cell surface (mouse) (UniProt Q9CR75); experiment: FACS (legend of FIG. 21A)
[36] = biological target: cynomolgus monkey Fn14, full-length, expressed on the cell surface (cynomolgus monkey); experiment: direct binding FACS, Fn14-transfected 293E cells (FIG. 19C)
[37] = biological target: human Fn14, full-length, expressed on the cell surface (human) (UniProt Q9NP84); experiment: as above
[38] = biological target: mouse Fn14, full-length, expressed on the cell surface (mouse) (UniProt Q9CR75); experiment: as above
[39] = biological target: cynomolgus monkey Fn14, full-length, expressed on the cell surface (cynomolgus monkey); experiment: FACS (legend of FIG. 19C)
[40] = biological target: human Fn14, full-length, expressed on the cell surface (human) (UniProt Q9NP84); experiment: FACS (legend of FIG. 19C)
[41] = biological target: mouse Fn14, full-length, expressed on the cell surface (mouse) (UniProt Q9CR75); experiment: FACS (legend of FIG. 19C)

binding [1]: binds
binding [2]: binds
binding [3]: binds
binding [4]: binds
binding [5]: binds
binding [6]: binds
binding [7]: binds
binding [8]: binds
binding [9]: binds
binding [10]: binds
binding [11]: binds
binding [12]: binds
binding [13]: binds
binding [14]: binds
binding [15]: binds
binding [16]: binds
binding [17]: binds
binding [18]: binds
binding [19]: binds
binding [20]: binds
binding [21]: binds
binding [22]: binds
binding [23]: binds
binding [24]: binds
binding [25]: binds
binding [26]: binds
binding [27]: binds
binding [28]: binds
binding [29]: binds
binding [30]: binds
binding [31]: binds
binding [32]: binds
binding [33]: binds
binding [34]: binds
binding [35]: binds
Substance: Fc-huTWEAK fusion protein (from UniProt O43508 106-249) (Fc fusion)

binding [36]: binds
binding [37]: binds
binding [38]: binds
binding [24]: binds
binding [25]: binds
binding [26]: binds
binding [39]: binds
binding [40]: binds
binding [41]: binds
Substance: muFc-muTWEAK fusion protein (from UniProt O54907 106-249) (Fc fusion)
